According to PubChem BioAssay AID2551 (National Center for Advancing Translational Sciences (NCATS), 2010):
The campaign covered roughly 310,000 compounds. About 17,000 (5.5%) were called active. Inconclusive results, whose numbers are uncertain, are shown with a selection of clear calls. Calls follow the shape of the dose curve; as a rule, active = well fitted inhibition curve with a large enough effect; inconclusive = small, poorly fitted or top-dose-only effect, or effect the other way; inactive = no such curve, though single readings can be large or run the other way. A potency beside an inconclusive call is a rough fit, not a confirmed value. Where a SMILES comes first, the peptide text is derived from it. The star is where a group is joined. Boc = CC(C)(C)OC(=O)*; Bn = c1ccc(C*)cc1

Protein sequences, listed by entry. Tags and fused reporters are not part of them. Lines headed by an entry give the natural chain unless they say otherwise; changes in a name come on top.
UniProt P51450: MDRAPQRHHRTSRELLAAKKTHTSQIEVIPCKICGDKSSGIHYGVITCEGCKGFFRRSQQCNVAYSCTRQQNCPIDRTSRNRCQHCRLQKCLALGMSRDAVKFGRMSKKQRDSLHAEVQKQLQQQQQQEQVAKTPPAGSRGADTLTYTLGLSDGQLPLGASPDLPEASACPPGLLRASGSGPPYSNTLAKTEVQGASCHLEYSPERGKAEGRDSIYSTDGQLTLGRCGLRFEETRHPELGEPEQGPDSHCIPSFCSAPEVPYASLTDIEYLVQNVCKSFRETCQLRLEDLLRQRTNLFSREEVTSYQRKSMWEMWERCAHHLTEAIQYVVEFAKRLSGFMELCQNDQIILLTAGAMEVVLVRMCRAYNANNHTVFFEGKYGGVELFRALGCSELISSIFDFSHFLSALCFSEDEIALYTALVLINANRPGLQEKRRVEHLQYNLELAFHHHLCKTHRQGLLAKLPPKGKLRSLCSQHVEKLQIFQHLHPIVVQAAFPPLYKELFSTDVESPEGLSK

Biological target: Nuclear receptor ROR-gamma (Mus musculus) (UniProt P51450)
Assay: qHTS for inhibitors of ROR gamma transcriptional activity; also: nearly all actives have a fitted effect of over 60% in size
Details: Drosophila S2 Gal4-RORgamma UAS-luciferase reporter, 20 h; activity change, negative = inhibition: at 53.6 µM (top of the series)
Summary of the method: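 Schneider cells (Drosophila), stable Gal4 DBD–ROR gamma + UAS-luc; 1 hr cmpd preincubation; Cu2+ induction 700 uM final; 20 hr ambient; luminescence.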
% is scaled to controls: 0 for no effect and ±100 for the full control effect; potency is read from the fitted curve at half-maximal effect.

| Structure (SMILES) | Potency | activity change, negative = inhibition |
| --- | --- | --- |
| CCN(CCn1cccn1)Cc1nc(-c2ccccc2)no1 | inconclusive: 22.4 µM [inhibitor, single point] | – |
| Cc1c(C(=O)Nc2ccc(Cl)cn2)oc2ccccc12 | inconclusive: 0.501 µM [activator, full curve, poor fit] | – |
| CCCCNC1C(CC)C(CCC)C(C#N)(C#N)C1(C#N)C#N (stereo unspecified) | inconclusive: 15.8 µM [inhibitor, partial curve, poor fit] | – |
| CCn1c(C)nc2cc(C(=O)N/N=C/c3cccc(O)c3O)ccc21 | active: 2.24 µM | – |
| CC(C)N(C(=S)NC1CC2CCC1C2)c1ccccc1 (stereo unspecified) | inconclusive: 35.5 µM [inhibitor, single point] | – |
| COc1cccc2c1OC[C@@H](CO)[C@H]2N(C)C(=O)Nc1ccccc1 | – | inactive: 1.75% |
| COc1cccc(Cn2c(=O)c(-c3ccc(Cl)cc3)nc3cnc(OC)nc32)c1 | – | inactive: 0.629% |
| CCOC(=O)c1ccc(NC(=O)c2nc[nH]c2C(=O)N2CCc3ccccc3C2)cc1 | active: 3.55 µM | – |
| Cc1ccc(OCC(=O)N2N=C(c3ccncc3)CC2(O)C(F)(F)F)cc1C (stereo unspecified) | active: 3.98 µM | – |
| O=C(CNC(=O)c1ccco1)OCC(=O)c1ccccc1 | inconclusive: 35.5 µM [inhibitor, single point] | – |
| CN(C)c1ccc(C2CC(c3cccc(NS(C)(=O)=O)c3)=NN2C(=O)c2ccccc2)cc1 (stereo unspecified) | inconclusive: 4.47 µM [inhibitor, full curve, poor fit] | – |
| CC(=O)Nc1nc2cc3c(cc2s1)OCCO3 | inconclusive: 22.4 µM [inhibitor, single point] | – |
| CC(C)(C)c1ccc(C(=O)N/N=C/c2cccc(Cl)c2)cc1 | inconclusive: 35.5 µM [inhibitor, single point] | – |
| Cc1ccccc1C(=O)N1CCC(C(=O)NC2CCCCC2)CC1 | – | inactive: -4.51% |
| N#CC[C@H](c1ccccc1)N1CCN(Cc2ccccc2)CCC1=O | – | inactive: 3.9% |
| N#C/C(=C\c1ccc(N2CCOCC2)cc1)c1ccccc1 | inconclusive: 7.94 µM [inhibitor, single point] | – |
| O=[N+]([O-])c1ccc(CSc2nnc(Cc3ccccc3)n2-c2ccc(F)cc2)cc1 | inconclusive: 0.0251 µM [activator, full curve, poor fit] | – |
| C#CCNC(=O)C1=C[C@H](c2cn(C(C)=O)c3ccccc23)C[C@H](OCc2ccc(CO)cc2)O1 | inconclusive: 17.8 µM [activator, single point] | – |
| CCC(C)NC(=O)c1cc2cc3ccc(OC)cc3nc2o1 (stereo unspecified) | inconclusive: 2 µM [activator, full curve, poor fit] | – |
| CCN1CCCC(OC(=O)c2cc(-c3ccc(C)cc3)nc3ccccc23)C1 (stereo unspecified) | inconclusive: 35.5 µM [inhibitor, single point] | – |
| CCCSc1nnc(-c2c[nH]c3ccccc23)n1CC | – | inactive: 15.6% |
| COc1ccccc1/C=C/C(=O)Oc1cccc2cccnc12 | active: 3.16 µM | – |
| CCn1c(Cc2ccccc2)nnc1SCC(=O)Nc1ccc2c(c1)OCCO2 | inconclusive: 31.6 µM [activator, single point] | – |
| O=C(N/N=C/c1cc([N+](=O)[O-])ccc1O)NC12CC3CC(CC(C3)C1)C2 | active: 3.55 µM | – |

| Structure (SMILES) | Potency | activity change, negative = inhibition |
| --- | --- | --- |
| CCCCc1nc2cc(C(=O)N(C)CCc3cn[nH]c3)ccc2o1 | inconclusive: 20 µM [activator, partial curve, poor fit] | – |
| Cc1cc2c(NC(=O)Nc3ccccc3)cccc2nn1 | – | inactive: -4.83% |
| CC(C)CC(NC(=O)C(Cc1ccc(OCc2ccccc2)cc1)NC(=O)OC(C)(C)C)C(N)=O (stereo unspecified) (Boc-Tyr(Bn)-Leu-NH2; configuration not given here) | inconclusive: 28.2 µM [inhibitor, single point] | – |
| CCOC(=O)Cc1csc(NC(=O)CSc2nnc(-c3ccc(C)cc3)o2)n1 | active: 11.2 µM | – |
| CNC(=O)Cn1c(C)cc(=O)c2cccc(OC)c21 | – | inactive: 15.2% |
| O=C(CSC(=S)N1CCCCC1)Nc1nc(-c2ccccc2)c(-c2ccccc2)o1 | active: 5.62 µM | – |
| CS(=O)(=O)N(Cc1ccccc1Cl)c1ccc(C(=O)NCc2cccnc2)cc1 | inconclusive: 14.1 µM [activator, single point] | – |
| O=C(c1cccc(S(=O)(=O)NCc2ccccc2)c1)N1CCN(c2cccc(C(F)(F)F)c2)CC1 | inconclusive: 15.8 µM [activator, single point] | – |
| CCC(=O)c1ccc(OCC(O)CN2CCN(S(=O)(=O)N3CCCCC3)CC2)cc1 (stereo unspecified) | inconclusive: 12.6 µM [activator, single point] | – |
| Cc1cc(Cl)ccc1OCCNC(=S)NC(=O)c1cccnc1 | inconclusive: 1.78 µM [inhibitor, full curve] | – |
| CCn1ccnc1C[C@@H]1COc2ccccc2O1 | inconclusive: 31.6 µM [inhibitor, partial curve, poor fit] | – |
| O=C(C1CCN(C2CC(=O)N(c3cccc(Cl)c3)C2=O)CC1)N1CCCCCC1 (stereo unspecified) | inconclusive: 25.1 µM [inhibitor, single point] | – |
| O=S(=O)(NNc1ccc(Cl)nn1)c1ccc(F)cc1 | active: 14.1 µM | – |
| Cc1nnc(SCC2=C(C(=O)O)N3C(=O)C(NC(=O)c4cccc(F)c4F)C3SC2)s1 (stereo unspecified) | – | inactive: -32.5% |
| Cn1c(=O)cc(OCCCC(=O)NCc2ccccn2)c2ccccc21 | inconclusive: 35.5 µM [inhibitor, single point] | – |
| Cc1cc(C)c(C#N)c(SCCS(=O)(=O)c2ccc(Cl)cc2)n1 | inconclusive: 35.5 µM [activator, single point] | – |
| Clc1cncc(Cl)c1NNc1c2ccccc2nc2ccccc12 | inconclusive: 11.2 µM [activator, single point] | – |
| COc1ccc(OC(C)C(=O)Nc2cccc(F)c2)cc1 (stereo unspecified) | inconclusive: 35.5 µM [activator, single point] | – |
| COC(=O)c1cn(CC(=O)NCc2cccs2)c2ccccc12 | inconclusive: 5.01 µM [activator, single point] | – |
| CCCn1c(SCC(=O)Nc2ccccc2-c2ccccc2)nnc1-c1ccoc1C | – | inactive: 39.5% |
| CCn1c(SCC(=O)Nc2ccc3c(c2)OCO3)nnc1-c1ccccc1O | inconclusive: 2.51 µM [inhibitor, full curve, poor fit] | – |
| CCC1=C2CC[C@H]3C(=O)N(CC)C(=O)[C@H]3[C@H]2[C@@]2(C)C(=O)N(CC(=O)OC)C(=O)N2C1=O | – | inactive: -4.76% |
| S=C(Nc1ccc(Cl)cc1)N(CCCN1CCOCC1)Cc1cccs1 | active: 12.6 µM | – |
| Cc1ccc2c(c1)N(C(=O)CCC(=O)N1CCN(c3cccc(C)c3C)CC1)CCO2 | inconclusive: 20 µM [activator, single point] | – |

| Structure (SMILES) | Potency | activity change, negative = inhibition |
| --- | --- | --- |
| CCCC1(C(=O)OC)C=C2C(=C(C(C)C)C(=O)C2C)CN1 (stereo unspecified) | – | inactive: 5.59% |
| CCOC(=O)c1cc(-c2ccc(OC)cc2)nc2c1c(C)nn2CCC(N)=S | active: 4.47 µM | – |
| Cc1sc2nc(SCc3nc4ccccc4[nH]3)n(Cc3ccco3)c(=O)c2c1C | inconclusive: 35.5 µM [inhibitor, single point] | – |
| N#C/C(=C\c1cccnc1)C(=O)NC1CCCCC1 | inconclusive: 1.58 µM [inhibitor, single point] | – |
| COc1cc(NC(=S)N2c3ccccc3CC2C)cc(OC)c1 (stereo unspecified) | active: 8.91 µM | – |
| Cc1nn(C)c(Oc2ccccc2)c1CCNC(=O)CC(C)C | inconclusive: 12.6 µM [inhibitor, single point] | – |
| CCC(=O)c1c(NC(C)C)cc(C)oc1=O | – | inactive: 10.6% |
| CC(=O)N(C1=C(N2CCOCC2)C(=O)c2ccccc2C1=O)c1ccc(C(=O)O)cc1 | inconclusive: 17.8 µM [inhibitor, partial curve, poor fit] | – |
| Cc1c([N+](=O)[O-])cc(C(=O)Nc2ccc(NC(=O)c3ccco3)cc2)cc1[N+](=O)[O-] | – | inactive: -16.6% |
| COc1cccc(CNS(=O)(=O)c2ccc3c(c2)CC(C)N3C(C)=O)c1 (stereo unspecified) | inconclusive: 14.1 µM [activator, single point] | – |
| COc1ccc2[nH]c(C)c(CCN(Cc3cccs3)C(=S)Nc3ccccc3)c2c1 | active: 1.78 µM | – |
| COc1ccc(NC(=O)c2cc(C)on2)cc1OC | – | inactive: -5.02% |
| CC(=O)c1c(C)[nH]c(C(=O)COC(=O)CCCOc2ccccc2)c1C | – | inactive: 13.5% |
| CCOc1ccccc1CNC(=O)c1c([N+](=O)[O-])c(C)nn1C | inconclusive: 17.8 µM [activator, single point] | – |
| CC(C)NC(=O)N1CCCN(c2nc3ccc(Cl)cc3s2)CC1 | inconclusive: 11.2 µM [activator, single point] | – |
| CCOC(=O)C(NC(C)=O)(Nc1ccc(F)cc1)C(F)(F)F (stereo unspecified) | – | inactive: -31.1% |
| CCOC(=O)Cc1csc(SCC(=O)Nc2cc(Cl)ccc2Oc2ccccc2)n1 | inconclusive: 35.5 µM [inhibitor, single point] | – |
| COc1ccc(/C=N/Nc2cc(C)nc3c(C)cccc23)cc1 | inconclusive: 35.5 µM [inhibitor, single point] | – |
| COCCN(C(=O)Cc1ccc(OC)c(OC)c1)c1nc(-c2cc(OC)ccc2OC)cs1 | inconclusive: 17.8 µM [activator, partial curve] | – |
| CCCCc1ccc(NC(=O)NCc2ccccn2)cc1 | inconclusive: 1.41 µM [activator, full curve, poor fit] | – |
| O=C(CCN1C(=O)/C(=C\c2ccc(F)cc2)SC1=S)Nc1ccccc1 | – | inactive: 11.2% |
| O=C(/C=C/c1ccc(OCCCF)cc1)N1CCN(Cc2ccccc2)CC1 | inconclusive: 35.5 µM [activator, single point] | – |
| CC1CCC(NC(=O)C2c3ccccc3C(=O)N2Cc2cccs2)CC1 (stereo unspecified) | – | inactive: 17.8% |

Among those listed so far, these have a CF3 group.

| Structure (SMILES) | Potency | activity change, negative = inhibition |
| --- | --- | --- |
| Cc1ccc(OCC(=O)N2N=C(c3ccncc3)CC2(O)C(F)(F)F)cc1C (stereo unspecified) | active: 3.98 µM | – |
| O=C(c1cccc(S(=O)(=O)NCc2ccccc2)c1)N1CCN(c2cccc(C(F)(F)F)c2)CC1 | inconclusive: 15.8 µM [activator, single point] | – |
| CCOC(=O)C(NC(C)=O)(Nc1ccc(F)cc1)C(F)(F)F (stereo unspecified) | – | inactive: -31.1% |
